# According to the supplement of paper PMC6411743:
# Sequences of proteins named here, by UniProt entry; tags and fusion partners are left off.
# UniProt P54709, whole entry: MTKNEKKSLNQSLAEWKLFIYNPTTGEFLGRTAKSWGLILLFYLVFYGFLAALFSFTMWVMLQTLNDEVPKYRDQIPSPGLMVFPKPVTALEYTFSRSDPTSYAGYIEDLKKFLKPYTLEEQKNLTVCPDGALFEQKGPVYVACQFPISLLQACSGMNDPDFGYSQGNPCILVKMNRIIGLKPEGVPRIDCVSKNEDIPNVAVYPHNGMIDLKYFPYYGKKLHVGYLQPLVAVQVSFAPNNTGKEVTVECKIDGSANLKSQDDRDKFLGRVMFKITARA
# ± gives the standard deviation of the averaged measurements. This is a selection; strong and weak results do not stand in their true shares.
# Target: ATP1B3 (UniProt P54709)
# Assay: NP40-soluble protein abundance relative to vehicle (solubility fold change) (ratio); higher = more soluble protein in presence of AMP-PNP
# In short: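 Data come from three independent experiments in which Dounce-homogenised Jurkat crude lysate was treated at eight concentrations from 0.1 to 10 mM. Treatment ran 10 min at room temperature and then 3 min at 37 °C, after which 0.8% NP40 and benzonase were added for 60 min at 4 °C before ultracentrifugation. The supernatant underwent TMT labelling and LC-MS/MS, and vsn-normalised intensities were expressed as fold change against the detergent-processed vehicle in each replicate.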
compound,measurement,setting,value
Nc1ncnc2c1ncn2[C@@H]1O[C@H](COP(=O)(O)OP(=O)(O)NP(=O)(O)O)[C@@H](O)[C@H]1O [adenylyl imidodiphosphate],NP40-soluble protein abundance,concentration: 1mM,1.01 ± 0.015
same,NP40-soluble protein abundance,concentration: 2mM,1.04 ± 0.063
same,NP40-soluble protein abundance,concentration: 4mM,0.9722 ± 0.004
same,NP40-soluble protein abundance,concentration: 6mM,1.01 ± 0.013
same,NP40-soluble protein abundance,concentration: 8mM,0.975 ± 0.011
same,NP40-soluble protein abundance,concentration: 10mM,1 ± 0.024
